Results reported in paper PMC10163288.
The list shows a part of the results.

B1: il2ra_site1_3nfp_sap_20_mot_HHH_b2_06429_af2_000000115_0001_1_18_H_._HHH_b1_03290_0001_0000300026_0000001_0_0001_af2pred_0001_af2pred_swapped (protein)
chain: SSSSNALELLREAAEELVRLLQEGDREEAERLLKEVAQELKELGNRHAARSLERAFELLARSSSS
B2: il2ra_site1_2b5i_sap_7_mot_HHH_b1_07956_af2_000000065_0001_19_34_H_._HHH_b2_02012_0001_0000300005_0000001_0_0001 (protein)
chain: SSSSDADRELVRFIFRLMFRFGLSAEQSQLLNRLLAELLEEGVSDEEIKRLLEELAEELSSSSSS
B3: il2ra_site1_1z92_normal_mot_54e474eed2d0515e81978198f0f96ec2_0001_000000202_0001_15_30_H_._321007649576c6d16d41e547348c2159_0001_0001_0000100011_0000001_0_af2pr … (protein)
chain: SVYVLDAERDAKLGLPPENVAKALARFLLEELGDPEEAEELLQELVEKTKDPILELAIEIVRELG
B4: il2ra_site1_3nfp_normal_mot_HHH_b2_00162_af2_000000036_0001_22_38_H_._HHH_b2_07432_af2_0001_0000100001_0000001_0 (protein)
chain: SSSSSDKRELLQRAFELVREAIKTKDEEELREIIEEAERIAEEAGDEKLLESLRRALELLSSSSS
B5: il2ra_site1_1z92_normal_mot_HHH_b1_01565_af2_000000147_0001_1_17_H_._HHH_b1_05822_0001_0000100006_0000001_0 (protein)
chain: SSSSSVLEIVEELLELLEELGDEELLRRLQEALERAQRHGDLELLKELDEIAVEVDEILESSSSS
B6: il2ra_site2_3nfp_sap_18_mot_HHH_b1_06589_000000230_0001_37_50_H_._HHH_b2_08153_af2_0001_0000100002_0000001_0_0001 (protein)
chain: SSSSDLENVVESAEQIAEELGDEETLEELERLLEEAKETGDPRLELEVFALARELYLKAVRSSSS
B7: il2ra_site1_3nfp_normal_mot_6fb122be6cd73e00adad15538fff8bb1_0001_1_000000019_0001_17_32_H_._HHH_b2_07001_0001_0000100003_0000001_0_af2pred_0001_af2pred (protein)
chain: SSSSSSDEYLEEIVERAQKLNPEYEEELERLLEEAKREGDARLLRELIQLAARLLLEGSSSSSSS
B8: il2ra_site2_3nfp_sap_19_mot_HHH_b1_03259_000000044_0001_22_38_H_._fade74b90712e35ca62446d022fe2564_0001_1_0001_0000100016_0000001_0_0001 (protein)
chain: SSSSDEEEIEKEFEKEIRRLYEEGNPEEARRVLAELSRLAWELDDIELYEVVAELLLMLARSSSS
B9: il2ra_site1_2b5i_normal_mot_HHH_b2_04910_000000118_0001_1_19_H_._HHH_b1_04383_0001_0000600015_0000001_0_af2pred_dldesign_0_af2pred (protein)
chain: SSSSDAEALREAERLFLKADELFQAGKPEEAKKLLEKALELAKKAGANSLTKIIESALKELSSSS
B10: il2ra_site1_1z92_normal_mot_7f39e2d7389de0c2f60e905c27398b6a_0001_1_000000104_0001_37_51_H_._6b3396789ca6d50aa04d7297b35efea3_0001_0001_0000200012_0000001_0_af2 … (protein)
chain: SIEEVLEDARRFAGGDPEKAARFIVKLMEASAGDPEEAEKDLRELVEEVGDPILRRALELLEERK
B11: il2ra_site2_3nfp_sap_25_mot_HHH_b1_04797_000000295_0001_41_55_H_._HHH_b1_05558_0001_0000100011_0000001_1_0001_af2pred_0001_af2pred (protein)
chain: SSSSSSDVEELLKEVEKLIEEGDEEEAKKALEEAAQLAVELGDFELFAKIAELLRELLSSSSSSS
B12: il2ra_site1_1z92_sap_14_mot_HHH_b2_01902_af2_000000252_0001_25_40_H_._a1d55611ccd54d2a00b8f792ef18dabe_0001_0001_0000200017_0000001_0_0001_af2pred_0001_af2pred_ … (protein)
chain: SELLKRQIEKRLEAGDLEAARKIIERFLRATGDPNLERILELIERYEKEKDPKLLEEIKQLIEEL
B13: il2ra_site1_2b5i_normal_mot_HHH_b1_00432_000000039_0001_1_18_H_._HHH_b1_04984_0001_0000300017_0000001_0_af2pred_dldesign_0_af2pred (protein)
chain: SSSSSDVDARVDELFQRALRLWREGRKEEARRLLEEALELLEKANKKKKLAEIRKLLELLSSSSS
B14: il2ra_site1_2b5i_sap_16_mot_HHH_b2_03161_000000036_0001_1_18_H_._HHH_b1_04838_af2_0001_0000100002_0000001_0_0001_af2pred_dldesign_0_af2pred (protein)
chain: SSSSSDPLAKAKAAIKEAEELAKKDKRKAIELLEKAYKEAGAANNDEAEKLLEDKFKELLSSSSS
B15: il2ra_site2_3nfp_normal_mot_49a7c9051cacde34b31d84fabeb7f3ea_0001_af2_000000030_0001_39_52_H_._HHH_b2_01636_af2_0001_0000100007_0000001_0 (protein)
chain: SSSSDLEEEVRKLLEEVEELLKEGNRFEALELLLRAHKLAVENDNPELVRKELELYAELASSSSS
B16: il2ra_site2_3nfp_sap_25_mot_HHH_b1_03818_000000217_0001_1_20_H_._HHH_b2_04458_af2_0001_0000300006_0000001_0_0001 (protein)
chain: SSSSDEERLEELLRILEELLHTDEEEFRRVLAEASHLAFEAGDSEVFFRLAELAYKLLQLSSSSS
B17: il2ra_site1_3nfp_normal_mot_HHH_b1_01231_af2_000000170_0001_1_16_H_._HHH_b1_04617_0001_0000100001_0000001_0_af2pred_0001_af2pred_1 (protein)
chain: SSSSDREEALKLFREAAQAALEGNPEEARELLEEAEELAERAGNEILLKRIRNALRVAKLGSSSS
B18: il2ra_site2_3nfp_normal_mot_HHH_b1_04781_af2_000000057_0001_1_18_H_._HHH_b2_00872_0001_0000900046_0000001_1 (protein)
chain: SSSSDKESLEEAIRMALDSAEALNDEEVFERIRELLEEFKEEGDPRYTLEAYELALEAYRKSSSS

molecular target: il2ra, P01589; assay: yeast display titration

Apparent Kd, inactive:
B1 no binding seen
B2 no binding seen
B3 > 0.583 µM
B4 no binding seen
B5 no binding seen
B6 no binding seen
B7 no binding seen
B8 7.16 to 19.5 µM
B9 no binding seen
B10 no binding seen
B11 no binding seen
B12 no binding seen
B13 no binding seen
B14 no binding seen
B15 no binding seen
B16 no binding seen
B17 no binding seen
B18 no binding seen

Looked up one by one from above:
Apparent Kd, inactive:
B12 no binding seen
B7 no binding seen
